# Data taken from the supplement of paper PMC6411743.
# The chains behind the UniProt entries cited, without tags or fusion partners. Where a name states a change or a piece, a line headed by the entry shows the natural chain unless it says otherwise.
# UniProt O75398: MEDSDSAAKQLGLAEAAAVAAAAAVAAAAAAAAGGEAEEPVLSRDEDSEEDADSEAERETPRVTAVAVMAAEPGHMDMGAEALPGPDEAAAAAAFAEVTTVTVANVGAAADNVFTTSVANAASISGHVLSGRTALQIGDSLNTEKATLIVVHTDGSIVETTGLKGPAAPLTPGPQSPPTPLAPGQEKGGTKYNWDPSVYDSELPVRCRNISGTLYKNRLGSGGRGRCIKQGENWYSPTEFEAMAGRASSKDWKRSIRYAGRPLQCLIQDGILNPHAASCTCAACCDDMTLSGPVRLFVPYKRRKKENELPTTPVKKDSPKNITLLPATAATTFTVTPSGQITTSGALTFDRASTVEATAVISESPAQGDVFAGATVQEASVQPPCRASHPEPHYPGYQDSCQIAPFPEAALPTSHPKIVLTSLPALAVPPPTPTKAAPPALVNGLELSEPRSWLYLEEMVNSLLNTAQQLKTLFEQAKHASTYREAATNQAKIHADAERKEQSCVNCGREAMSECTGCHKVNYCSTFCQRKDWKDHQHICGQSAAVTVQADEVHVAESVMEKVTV
# UniProt O94776: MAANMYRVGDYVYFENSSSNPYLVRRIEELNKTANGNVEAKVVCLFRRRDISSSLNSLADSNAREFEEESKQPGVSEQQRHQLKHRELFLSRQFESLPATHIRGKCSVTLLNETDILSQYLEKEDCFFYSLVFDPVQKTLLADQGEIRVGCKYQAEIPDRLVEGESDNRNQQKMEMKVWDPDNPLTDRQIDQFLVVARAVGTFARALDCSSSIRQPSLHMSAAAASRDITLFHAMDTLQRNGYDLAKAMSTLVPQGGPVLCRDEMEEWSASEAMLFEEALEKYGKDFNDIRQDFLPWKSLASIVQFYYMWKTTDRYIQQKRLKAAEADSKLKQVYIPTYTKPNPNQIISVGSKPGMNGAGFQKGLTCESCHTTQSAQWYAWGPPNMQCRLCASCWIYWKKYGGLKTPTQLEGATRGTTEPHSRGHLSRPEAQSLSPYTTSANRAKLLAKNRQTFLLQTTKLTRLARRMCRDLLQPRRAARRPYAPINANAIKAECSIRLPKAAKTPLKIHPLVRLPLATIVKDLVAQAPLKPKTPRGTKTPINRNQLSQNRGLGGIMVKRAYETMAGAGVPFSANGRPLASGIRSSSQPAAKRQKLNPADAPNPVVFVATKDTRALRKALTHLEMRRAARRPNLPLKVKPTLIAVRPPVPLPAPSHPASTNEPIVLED
# UniProt O75937: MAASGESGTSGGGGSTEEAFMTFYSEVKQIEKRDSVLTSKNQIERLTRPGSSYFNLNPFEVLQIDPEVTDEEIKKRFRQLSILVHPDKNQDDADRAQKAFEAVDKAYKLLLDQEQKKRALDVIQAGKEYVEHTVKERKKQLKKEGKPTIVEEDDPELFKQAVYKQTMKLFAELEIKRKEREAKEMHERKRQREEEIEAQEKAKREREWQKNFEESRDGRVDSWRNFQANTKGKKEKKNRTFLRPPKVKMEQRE
# UniProt O76080: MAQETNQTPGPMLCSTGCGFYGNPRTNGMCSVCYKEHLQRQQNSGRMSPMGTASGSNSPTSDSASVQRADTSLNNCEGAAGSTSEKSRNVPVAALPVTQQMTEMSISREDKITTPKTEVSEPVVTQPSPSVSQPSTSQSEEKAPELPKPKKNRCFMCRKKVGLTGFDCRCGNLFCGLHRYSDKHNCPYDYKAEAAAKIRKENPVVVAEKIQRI
# UniProt O75150, whole entry: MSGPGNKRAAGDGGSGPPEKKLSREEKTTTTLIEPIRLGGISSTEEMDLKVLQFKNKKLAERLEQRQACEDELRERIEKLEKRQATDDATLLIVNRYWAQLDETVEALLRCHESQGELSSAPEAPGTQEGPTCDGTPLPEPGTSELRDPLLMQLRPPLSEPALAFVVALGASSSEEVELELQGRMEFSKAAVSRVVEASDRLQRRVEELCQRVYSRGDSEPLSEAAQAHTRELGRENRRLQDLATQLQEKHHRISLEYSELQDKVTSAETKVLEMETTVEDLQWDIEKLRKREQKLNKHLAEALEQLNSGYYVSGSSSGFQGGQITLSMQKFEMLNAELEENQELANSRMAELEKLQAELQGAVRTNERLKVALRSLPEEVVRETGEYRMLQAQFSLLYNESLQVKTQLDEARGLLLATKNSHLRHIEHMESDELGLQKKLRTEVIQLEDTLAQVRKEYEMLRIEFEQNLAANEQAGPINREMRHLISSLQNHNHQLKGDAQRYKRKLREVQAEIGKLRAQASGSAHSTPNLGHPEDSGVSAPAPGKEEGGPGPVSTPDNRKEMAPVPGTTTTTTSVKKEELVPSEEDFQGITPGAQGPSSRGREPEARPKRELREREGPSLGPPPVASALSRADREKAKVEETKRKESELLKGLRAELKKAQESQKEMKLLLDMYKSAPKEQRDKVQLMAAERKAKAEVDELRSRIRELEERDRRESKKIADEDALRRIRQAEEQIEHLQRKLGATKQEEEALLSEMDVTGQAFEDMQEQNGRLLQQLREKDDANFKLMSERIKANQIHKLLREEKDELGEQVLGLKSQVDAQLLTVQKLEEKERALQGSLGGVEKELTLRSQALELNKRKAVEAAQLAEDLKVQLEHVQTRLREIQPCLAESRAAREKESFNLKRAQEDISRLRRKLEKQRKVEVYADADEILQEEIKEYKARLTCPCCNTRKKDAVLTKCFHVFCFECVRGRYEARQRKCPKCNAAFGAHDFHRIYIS
# UniProt O60763: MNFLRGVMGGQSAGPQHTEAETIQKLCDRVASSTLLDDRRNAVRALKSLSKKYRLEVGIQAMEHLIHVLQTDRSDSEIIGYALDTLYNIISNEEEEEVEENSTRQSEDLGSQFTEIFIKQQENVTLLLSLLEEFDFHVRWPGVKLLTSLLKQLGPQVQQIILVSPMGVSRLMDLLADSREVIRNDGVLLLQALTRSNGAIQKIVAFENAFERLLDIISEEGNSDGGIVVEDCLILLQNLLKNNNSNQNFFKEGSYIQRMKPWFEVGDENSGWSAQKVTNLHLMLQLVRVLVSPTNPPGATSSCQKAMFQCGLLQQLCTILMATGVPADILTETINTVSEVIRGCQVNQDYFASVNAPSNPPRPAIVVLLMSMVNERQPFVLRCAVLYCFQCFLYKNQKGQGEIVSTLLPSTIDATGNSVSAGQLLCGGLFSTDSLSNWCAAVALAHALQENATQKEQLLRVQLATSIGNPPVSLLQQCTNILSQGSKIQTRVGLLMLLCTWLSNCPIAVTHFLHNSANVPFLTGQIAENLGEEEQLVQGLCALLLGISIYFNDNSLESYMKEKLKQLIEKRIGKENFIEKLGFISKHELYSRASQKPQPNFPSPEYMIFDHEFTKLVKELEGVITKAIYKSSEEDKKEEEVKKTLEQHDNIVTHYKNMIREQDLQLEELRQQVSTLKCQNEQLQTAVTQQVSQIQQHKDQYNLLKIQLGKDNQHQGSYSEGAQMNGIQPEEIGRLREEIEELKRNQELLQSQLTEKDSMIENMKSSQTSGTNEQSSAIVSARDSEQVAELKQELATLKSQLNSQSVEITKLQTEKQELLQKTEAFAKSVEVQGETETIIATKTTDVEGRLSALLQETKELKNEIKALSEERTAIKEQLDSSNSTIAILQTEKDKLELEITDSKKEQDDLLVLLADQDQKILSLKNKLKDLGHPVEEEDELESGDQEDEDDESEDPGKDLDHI
# UniProt O75063: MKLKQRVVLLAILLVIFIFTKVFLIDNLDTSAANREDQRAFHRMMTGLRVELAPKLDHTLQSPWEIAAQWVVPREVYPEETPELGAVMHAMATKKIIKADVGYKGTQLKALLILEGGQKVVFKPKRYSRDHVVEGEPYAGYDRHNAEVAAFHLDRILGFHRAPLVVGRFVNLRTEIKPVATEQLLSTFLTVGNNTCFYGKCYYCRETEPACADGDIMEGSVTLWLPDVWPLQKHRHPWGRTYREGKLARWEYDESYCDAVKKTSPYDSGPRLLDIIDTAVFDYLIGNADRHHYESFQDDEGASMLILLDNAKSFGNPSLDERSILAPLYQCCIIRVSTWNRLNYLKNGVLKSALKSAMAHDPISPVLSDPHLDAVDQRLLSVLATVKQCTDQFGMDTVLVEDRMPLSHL
# UniProt O95716: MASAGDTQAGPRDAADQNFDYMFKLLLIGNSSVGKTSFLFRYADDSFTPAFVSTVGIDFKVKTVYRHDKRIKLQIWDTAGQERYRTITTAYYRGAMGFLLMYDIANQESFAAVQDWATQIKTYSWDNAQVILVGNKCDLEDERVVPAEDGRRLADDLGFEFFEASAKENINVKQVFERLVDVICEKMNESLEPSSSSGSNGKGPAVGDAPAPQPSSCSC
# UniProt O75663: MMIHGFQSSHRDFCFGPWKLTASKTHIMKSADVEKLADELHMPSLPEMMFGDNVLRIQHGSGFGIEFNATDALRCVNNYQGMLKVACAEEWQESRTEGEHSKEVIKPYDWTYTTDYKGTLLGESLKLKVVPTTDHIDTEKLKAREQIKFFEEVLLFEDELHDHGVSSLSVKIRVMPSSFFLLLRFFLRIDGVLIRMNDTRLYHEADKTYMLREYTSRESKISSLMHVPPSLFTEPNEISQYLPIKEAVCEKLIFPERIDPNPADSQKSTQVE
# UniProt O94819: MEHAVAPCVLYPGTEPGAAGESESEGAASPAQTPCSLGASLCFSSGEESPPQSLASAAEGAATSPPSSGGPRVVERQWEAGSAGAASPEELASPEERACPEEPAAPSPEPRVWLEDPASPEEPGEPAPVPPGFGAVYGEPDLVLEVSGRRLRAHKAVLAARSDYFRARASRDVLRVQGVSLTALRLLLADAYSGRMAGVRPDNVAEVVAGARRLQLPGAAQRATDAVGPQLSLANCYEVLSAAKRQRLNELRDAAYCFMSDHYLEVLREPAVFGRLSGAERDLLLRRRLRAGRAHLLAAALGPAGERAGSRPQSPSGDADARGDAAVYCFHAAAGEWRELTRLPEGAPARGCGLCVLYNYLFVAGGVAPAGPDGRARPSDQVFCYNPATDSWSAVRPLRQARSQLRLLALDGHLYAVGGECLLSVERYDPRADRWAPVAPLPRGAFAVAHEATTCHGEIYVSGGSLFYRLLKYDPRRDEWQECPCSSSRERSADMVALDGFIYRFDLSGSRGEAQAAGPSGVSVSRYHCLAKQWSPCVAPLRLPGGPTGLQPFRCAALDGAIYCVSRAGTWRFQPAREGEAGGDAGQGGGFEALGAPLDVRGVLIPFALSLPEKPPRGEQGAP
# UniProt O75792: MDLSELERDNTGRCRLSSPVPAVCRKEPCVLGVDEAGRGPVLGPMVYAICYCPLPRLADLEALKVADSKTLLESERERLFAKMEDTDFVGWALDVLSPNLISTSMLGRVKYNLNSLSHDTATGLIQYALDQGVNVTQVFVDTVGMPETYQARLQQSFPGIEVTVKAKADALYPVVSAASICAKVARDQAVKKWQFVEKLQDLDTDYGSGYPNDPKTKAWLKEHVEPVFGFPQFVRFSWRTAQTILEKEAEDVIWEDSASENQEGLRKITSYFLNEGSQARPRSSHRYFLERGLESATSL
# UniProt O75151: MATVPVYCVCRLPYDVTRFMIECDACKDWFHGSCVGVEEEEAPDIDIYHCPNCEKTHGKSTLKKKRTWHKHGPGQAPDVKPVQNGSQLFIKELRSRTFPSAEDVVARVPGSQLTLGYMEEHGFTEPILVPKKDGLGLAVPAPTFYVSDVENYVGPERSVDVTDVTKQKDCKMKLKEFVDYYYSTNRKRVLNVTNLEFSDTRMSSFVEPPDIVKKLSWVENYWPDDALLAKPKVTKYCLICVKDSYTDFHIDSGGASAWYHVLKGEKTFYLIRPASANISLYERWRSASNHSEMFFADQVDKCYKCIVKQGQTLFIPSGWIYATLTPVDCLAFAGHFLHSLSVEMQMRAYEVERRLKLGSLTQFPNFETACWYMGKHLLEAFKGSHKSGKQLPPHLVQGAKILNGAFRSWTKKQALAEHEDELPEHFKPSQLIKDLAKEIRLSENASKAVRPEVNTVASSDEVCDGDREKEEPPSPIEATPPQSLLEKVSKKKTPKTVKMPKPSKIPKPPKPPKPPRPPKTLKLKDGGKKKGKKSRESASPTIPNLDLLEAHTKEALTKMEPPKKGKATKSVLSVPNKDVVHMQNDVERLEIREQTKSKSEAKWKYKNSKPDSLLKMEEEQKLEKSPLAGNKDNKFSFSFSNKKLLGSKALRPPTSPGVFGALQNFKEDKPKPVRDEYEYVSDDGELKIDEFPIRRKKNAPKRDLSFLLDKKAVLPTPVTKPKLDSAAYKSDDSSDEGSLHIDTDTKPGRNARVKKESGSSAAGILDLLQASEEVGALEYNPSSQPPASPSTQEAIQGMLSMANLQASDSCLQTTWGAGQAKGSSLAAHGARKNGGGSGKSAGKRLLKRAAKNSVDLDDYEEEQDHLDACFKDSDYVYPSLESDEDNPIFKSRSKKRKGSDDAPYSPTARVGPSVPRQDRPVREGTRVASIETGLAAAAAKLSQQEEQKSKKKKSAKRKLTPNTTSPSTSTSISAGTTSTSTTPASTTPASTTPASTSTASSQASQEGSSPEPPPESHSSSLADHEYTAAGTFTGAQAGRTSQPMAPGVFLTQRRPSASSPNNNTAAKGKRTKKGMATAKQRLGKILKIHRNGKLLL
# ± gives the standard deviation of the averaged measurements. This is a selection; strong and weak results do not stand in their true shares.
# Compound: Nc1ncnc2c1ncn2[C@@H]1O[C@H](COP(=O)(O)OP(=O)(O)OP(=O)(O)O)[C@@H](O)[C@H]1O [adenosine triphosphate]
# Assay: NP40-soluble protein abundance relative to vehicle (solubility fold change) (ratio); higher = more soluble protein in presence of ATP
# Conditions: concentration: 1mM
# Outline: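 Crude Jurkat lysate, prepared by Dounce homogenisation, was exposed to eight concentrations from 0.1 to 10 mM for 10 min at room temperature and then 3 min at 37 °C. Solubilisation used 0.8% NP40 with benzonase for 60 min at 4 °C, followed by ultracentrifugation and TMT labelling of the supernatant for LC-MS/MS. After vsn normalisation of intensities, each value is the fold change against the detergent-processed vehicle within each replicate, across three independent experiments.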
row,Target,NP40-soluble protein abundance
1,UniProt O95197 and related entries,1.01 ± 0.084
2,ENDOD1 (UniProt O94919),0.936 ± 0.06
3,UniProt O95251 and related entries,1.2 ± 0.014
4,UniProt O75398 and related entries,0.936 ± 0.15
5,AP1G2 (UniProt O75843),1.03 ± 0.057
6,NPM3 (UniProt O75607),1.03 ± 0.074
7,MTA2 (UniProt O94776),1.01 ± 0.035
8,DNAJC8 (UniProt O75937),1 ± 0.086
9,UniProt O95613 and related entries,0.991 ± 0.052
10,MYO1D (UniProt O94832),1.27 ± 0.2
11,ZBED4 (UniProt O75132),1.05 ± 0.062
12,ZFAND5 (UniProt O76080),0.856 ± 0.05
13,UniProt O75600 and related entries,1.03 ± 0.087
14,SMC2 (UniProt O95347),0.99 ± 0.018
15,CPD (UniProt O75976),0.983 ± 0.021
16,UniProt O75947,0.934 ± 0.092
17,UniProt O60524 and related entries,0.943 ± 0.027
18,SF3B1 (UniProt O75533),1.14 ± 0.024
19,SMNDC1 (UniProt O75940),1.08 ± 0.045

row,Target,NP40-soluble protein abundance
1,UniProt O75150 and related entries,0.958 ± 0.026
2,UniProt O95429 and related entries,1.04 ± 0.25
3,ZNF217 (UniProt O75362),0.97 ± 0.052
4,UniProt O94822 and related entries,1.08 ± 0.032
5,UniProt O60763 and related entries,0.921 ± 0.035
6,SRP72 (UniProt O76094),1 ± 0.013
7,GMDS (UniProt O60547),1.03 ± 0.12
8,NUP155 (UniProt O75694),1.07 ± 0.084
9,FAM20B (UniProt O75063),1.06 ± 0.049
10,DKC1 (UniProt O60832),1.09 ± 0.1
11,RAB3D (UniProt O95716),0.94 ± 0.12
12,UniProt O60879-2|O60879-3|C9J6U3 and related entries,1.01 ± 0.012
13,TIPRL (UniProt O75663),1.02 ± 0.047
14,KBTBD11 (UniProt O94819),1.01 ± 0.024
15,RNASEH2A (UniProt O75792),0.973 ± 0.014
16,UniProt O75208 and related entries,0.876 ± 0.062
17,PHF2 (UniProt O75151),1.02 ± 0.1
18,UniProt O75340 and related entries,1.01 ± 0.054

# Same assay, conditions: concentration: 2mM
row,Target,NP40-soluble protein abundance
1,UniProt O95197 and related entries,1 ± 0.05
2,ENDOD1 (UniProt O94919),0.974 ± 0.034
3,UniProt O95251 and related entries,1.2 ± 0.042
4,UniProt O75398 and related entries,1 ± 0.1
5,AP1G2 (UniProt O75843),0.972 ± 0.058
6,NPM3 (UniProt O75607),1 ± 0.065
7,MTA2 (UniProt O94776),0.991 ± 0.041
8,DNAJC8 (UniProt O75937),0.969 ± 0.031
9,UniProt O95613 and related entries,0.955 ± 0.065
10,MYO1D (UniProt O94832),1.28 ± 0.14
11,ZBED4 (UniProt O75132),1.02 ± 0.074
12,ZFAND5 (UniProt O76080),0.874 ± 0.064
13,UniProt O75600 and related entries,1 ± 0.08
14,SMC2 (UniProt O95347),0.978 ± 0.012
15,CPD (UniProt O75976),0.985 ± 0.03
16,UniProt O75947,0.914 ± 0.061
17,UniProt O60524 and related entries,0.969 ± 0.032
18,SF3B1 (UniProt O75533),1.11 ± 0.013
19,SMNDC1 (UniProt O75940),1.12 ± 0.013

row,Target,NP40-soluble protein abundance
1,UniProt O75150 and related entries,0.95 ± 0.018
2,UniProt O95429 and related entries,0.997 ± 0.19
3,ZNF217 (UniProt O75362),0.978 ± 0.049
4,UniProt O94822 and related entries,1.09 ± 0.1
5,UniProt O60763 and related entries,0.94 ± 0.018
6,SRP72 (UniProt O76094),0.993 ± 0.044
7,GMDS (UniProt O60547),1.01 ± 0.079
8,NUP155 (UniProt O75694),1.06 ± 0.097
9,FAM20B (UniProt O75063),1.017 ± 0.0045
10,DKC1 (UniProt O60832),1.09 ± 0.029
11,RAB3D (UniProt O95716),0.945 ± 0.11
12,UniProt O60879-2|O60879-3|C9J6U3 and related entries,1.01 ± 0.023
13,TIPRL (UniProt O75663),0.949 ± 0.053
14,KBTBD11 (UniProt O94819),0.938 ± 0.021
15,RNASEH2A (UniProt O75792),0.972 ± 0.037
16,UniProt O75208 and related entries,0.88 ± 0.029
17,PHF2 (UniProt O75151),1.02 ± 0.11
18,UniProt O75340 and related entries,1.04 ± 0.052

# Same assay, conditions: concentration: 4mM
row,Target,NP40-soluble protein abundance
1,UniProt O95197 and related entries,0.937 ± 0.041
2,ENDOD1 (UniProt O94919),0.952 ± 0.038
3,UniProt O95251 and related entries,1.25 ± 0.061
4,UniProt O75398 and related entries,0.987 ± 0.13
5,AP1G2 (UniProt O75843),0.998 ± 0.031
6,NPM3 (UniProt O75607),1.06 ± 0.038
7,MTA2 (UniProt O94776),0.976 ± 0.044
8,DNAJC8 (UniProt O75937),1.03 ± 0.048
9,UniProt O95613 and related entries,1.04 ± 0.031
10,MYO1D (UniProt O94832),1.21 ± 0.26
11,ZBED4 (UniProt O75132),1.02 ± 0.032
12,ZFAND5 (UniProt O76080),0.876 ± 0.054
13,UniProt O75600 and related entries,0.99 ± 0.074
14,SMC2 (UniProt O95347),0.961 ± 0.016
15,CPD (UniProt O75976),0.962 ± 0.034
16,UniProt O75947,0.906 ± 0.02
17,UniProt O60524 and related entries,1.03 ± 0.026
18,SF3B1 (UniProt O75533),1.13 ± 0.012
19,SMNDC1 (UniProt O75940),1.09 ± 0.011

row,Target,NP40-soluble protein abundance
1,UniProt O75150 and related entries,0.9503 ± 0.0064
2,UniProt O95429 and related entries,1.07 ± 0.28
3,ZNF217 (UniProt O75362),0.98 ± 0.038
4,UniProt O94822 and related entries,1.05 ± 0.02
5,UniProt O60763 and related entries,0.8989 ± 0.0055
6,SRP72 (UniProt O76094),0.979 ± 0.035
7,GMDS (UniProt O60547),0.988 ± 0.097
8,NUP155 (UniProt O75694),1.06 ± 0.083
9,FAM20B (UniProt O75063),1.03 ± 0.077
10,DKC1 (UniProt O60832),1.16 ± 0.053
11,RAB3D (UniProt O95716),0.962 ± 0.1
12,UniProt O60879-2|O60879-3|C9J6U3 and related entries,1.006 ± 0.0081
13,TIPRL (UniProt O75663),0.951 ± 0.057
14,KBTBD11 (UniProt O94819),1.01 ± 0.03
15,RNASEH2A (UniProt O75792),0.932 ± 0.033
16,UniProt O75208 and related entries,0.859 ± 0.061
17,PHF2 (UniProt O75151),1.04 ± 0.12
18,UniProt O75340 and related entries,1.03 ± 0.033
